# Part of at least one peptide drawing is inferred or uncertain, most often the ends. Where a SMILES comes first, the peptide text is derived from it. [ ]: non-standard residue; d: D form. The star is where a group is joined. Phe(4-Cl) = N[C@@H](Cc1ccc(Cl)cc1)C(=O)O; 2Nal = N[C@@H](Cc1ccc2ccccc2c1)C(=O)O; Fmoc = O=C(OCC1c2ccccc2-c2ccccc21)*; 2Thi = N[C@@H](Cc1cccs1)C(=O)O
# Sequences of proteins named here, by UniProt entry; tags and fusion partners are left off.
# UniProt P98170, whole entry: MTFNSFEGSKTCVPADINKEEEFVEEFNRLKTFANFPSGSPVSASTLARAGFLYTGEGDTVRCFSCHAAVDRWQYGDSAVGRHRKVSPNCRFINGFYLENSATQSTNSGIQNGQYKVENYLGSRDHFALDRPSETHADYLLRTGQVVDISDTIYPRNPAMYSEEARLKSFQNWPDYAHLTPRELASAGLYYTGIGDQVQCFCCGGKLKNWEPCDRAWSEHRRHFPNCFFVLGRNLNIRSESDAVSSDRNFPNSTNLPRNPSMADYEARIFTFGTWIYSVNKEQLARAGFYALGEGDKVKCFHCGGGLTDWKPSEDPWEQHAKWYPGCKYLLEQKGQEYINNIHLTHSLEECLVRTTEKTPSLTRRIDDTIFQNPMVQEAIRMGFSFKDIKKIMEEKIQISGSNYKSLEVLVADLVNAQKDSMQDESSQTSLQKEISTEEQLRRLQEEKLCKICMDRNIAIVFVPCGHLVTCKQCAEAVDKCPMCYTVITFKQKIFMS
# What was measured:
# [1] = test system: ALVA31 prostate cancer cells; test: ALVA31 cell viability (XTT dye-reduction and trypan blue dye exclusion); format: cell-based; details: IAP antagonist 40 μM or VP-16 100 μM, 24 hrs
# Procedure: The in vivo effects of TPI792-33 or TPI792-35, either individually or in combination with the cytotoxic anticancer drug VP-16 (etoposide), on derepression of XIAP-inhibited caspase and viability of ALVA31 cells was determined as follows. ALVA31 prostate cancer cells were seeded onto 96 well plates (10^4 cells/well) in 100 μL RPMI containing 2.5% fetal bovine serum (FBS). […] After another 24 hrs incubation, cell viability was measured by the XTT dye-reduction assay (Roche, Molecular Biochemicals; Indianapolis, Ind.) and trypan blue dye exclusion assay.
# [2] = test system: Jurkat leukemia cells; test: Jurkat cell killing, Annexin V / propidium iodide flow cytometry; format: cell-based; details: one day treatment
# Procedure: The following assay was used to test the ability of individual compounds from the TPI1396 and TPI1391 libraries to induce apoptosis of cultured tumor cell lines. Each of the compounds listed in Table IX was individually added to Jurkat leukemia cells (6.25×10^5 cells/mL) in RPMI containing 2.5% FBS at various concentrations for 20 hours. After incubation, cells were washed and stained with FITC-conjugated Annexin V antibody and propidium iodide (Biovision; Mountain View, Calif.). Cells were incubated for 20 minutes at room temperature in the dark and fluorescence was measured by flow cytometry (FACScan, Immunocytometry system; Becton-Dickinson; San Jose, Calif.). Cells staining positive for Annexin V were deemed non-viable.
# The TPI1396-34 and TPI1391-28 compounds were further tested as set forth below.
# [3] = biological target: full length XIAP (Homo sapiens, UniProt P98170); test: SMAC competition assay: rhodamine labeled SMAC tetrapeptide AVPI and full length XIAP; details: fold relative to SMAC AVPI tetrapeptide
# [4] = biological target: XIAP-inhibited caspase-3 (Homo sapiens, UniProt P98170); test: IAP derepression assay: Ac-DEVD-AFC hydrolysis by caspase-3 in presence of GST-XIAP; format: biochemical; details: tested at 0.4, 2, 10 and 50 micrograms per milliliter
# Procedure: Caspase activity was assayed by release of −7-amino-4-trifluoromethyl-coumarin (AFC) from Ac-DEVD-AFC synthetic peptides using a Molecular Devices Spectromax 340 (see Zhou et al., J. Biol. Chem. 272: 7797-7800 (1997)). […] The ratio of Vmax for hydrolysis of Ac-DEVD-AFC in the presence and absence of the candidate mixture was calculated and used to identify those that contain an agent that derepresses an IAP-inhibited caspase.
# Screening of each mixture from the DCR390, TPI1239 or TPI1328 library, respectively, using the above described assay was carried out as follows. Each mixture was aliquoted in a 25 microliter volume and in duplicate to a well of a 96 well microtiter plate. […] Fluorescence of liberated AFC was immediately detected from each well for 30 minutes at 30 second intervals. The Vmax for hydrolysis of AC-DEVD-AFC from each well was measured using the softmax software package.
SMILES,"effect on viability of ALVA31 cells, agent alone [1]",cells killed ([2]; 5 μM),cells killed ([2]; 8 μM),Relative Potency [3],LC (lowest concentration with a ratio of 2 or higher in the derepression assay) [4] [µg/mL]
"CC[C@H](C)[C@H](NC(=O)[C@@H]1CCCN1C(=O)[C@@H](NC(=O)[C@H](C)N)C(C)C)C(=O)O [SMAC AVPI tetrapeptide, AVPI]",no effect,no significant effect,no significant effect,,
"N[C@@H](Cc1cccs1)C(=O)N[C@@H](Cc1ccc2ccccc2c1)C(=O)N[C@H](CCCCNC(=O)OCC1c2ccccc2-c2ccccc21)C(=O)N[C@@H](CCCCNC(=O)OCC1c2ccccc2-c2ccccc21)C(=O)O [TPI792-35, (L-ThiAla)-(L-Nal)— (D-Lys-εFmoc)-(Lys-εFmoc)] (H-[2Thi][2Nal][dK](Fmoc)K(Fmoc)-OH; N-terminus and C-terminus assumed)",reduced viability of these prostate cancer cells by nearly half,,,2.5,2
"N[C@@H](Cc1cccs1)C(=O)N[C@@H](Cc1ccc2ccccc2c1)C(=O)N[C@@H](Cc1ccc(Cl)cc1)C(=O)N[C@@H](CCCCNC(=O)OCC1c2ccccc2-c2ccccc21)C(=O)O [TPI792-33, (L-ThiAla)-(L-Nal)-(L-pClPhe)-(Lys-εFmoc)] (H-[2Thi][2Nal][Phe(4-Cl)]K(Fmoc)-OH; N-terminus and C-terminus assumed)",reduced viability of these prostate cancer cells by nearly half,,,5.2,0.4

# Reference: patent US20050159359A1, “Methods and compositions for derepression of IAP-inhibited caspase” (The Burnham Institute, priority 2001, published 2005)
